Results reported in publication PMC9564825.
These are yes or no findings as the source states them, for the method shown. Some results given as binding are weak or reduced against the parent protein; the word gives no strength. Each block holds one binder with its values, some of them ahead of it.

By UniProt entry, the sequences of proteins in these tests, tags left out.
UniProt Q9Y5B8: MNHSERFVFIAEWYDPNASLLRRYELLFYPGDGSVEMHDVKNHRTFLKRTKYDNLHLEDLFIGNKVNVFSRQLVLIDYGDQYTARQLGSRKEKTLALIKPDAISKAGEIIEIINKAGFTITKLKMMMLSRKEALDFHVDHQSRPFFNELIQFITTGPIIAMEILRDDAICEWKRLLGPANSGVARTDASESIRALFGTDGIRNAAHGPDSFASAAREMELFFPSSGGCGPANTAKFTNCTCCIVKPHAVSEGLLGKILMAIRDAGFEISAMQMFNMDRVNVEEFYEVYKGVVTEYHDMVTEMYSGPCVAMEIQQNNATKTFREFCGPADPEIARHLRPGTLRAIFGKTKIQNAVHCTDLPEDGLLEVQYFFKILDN
UniProt P68371: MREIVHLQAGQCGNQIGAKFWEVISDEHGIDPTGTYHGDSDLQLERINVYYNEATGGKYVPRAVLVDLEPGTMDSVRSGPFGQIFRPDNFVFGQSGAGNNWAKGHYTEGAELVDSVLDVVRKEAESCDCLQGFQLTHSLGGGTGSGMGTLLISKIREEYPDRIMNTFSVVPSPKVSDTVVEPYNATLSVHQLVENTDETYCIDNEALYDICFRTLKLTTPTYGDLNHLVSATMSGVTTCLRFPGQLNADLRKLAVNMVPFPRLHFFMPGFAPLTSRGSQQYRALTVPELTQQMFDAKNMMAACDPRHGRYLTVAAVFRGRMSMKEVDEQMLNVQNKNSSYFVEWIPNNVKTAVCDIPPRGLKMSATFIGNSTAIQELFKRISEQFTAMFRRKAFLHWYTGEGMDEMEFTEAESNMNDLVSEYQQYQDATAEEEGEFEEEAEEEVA
UniProt Q969V4: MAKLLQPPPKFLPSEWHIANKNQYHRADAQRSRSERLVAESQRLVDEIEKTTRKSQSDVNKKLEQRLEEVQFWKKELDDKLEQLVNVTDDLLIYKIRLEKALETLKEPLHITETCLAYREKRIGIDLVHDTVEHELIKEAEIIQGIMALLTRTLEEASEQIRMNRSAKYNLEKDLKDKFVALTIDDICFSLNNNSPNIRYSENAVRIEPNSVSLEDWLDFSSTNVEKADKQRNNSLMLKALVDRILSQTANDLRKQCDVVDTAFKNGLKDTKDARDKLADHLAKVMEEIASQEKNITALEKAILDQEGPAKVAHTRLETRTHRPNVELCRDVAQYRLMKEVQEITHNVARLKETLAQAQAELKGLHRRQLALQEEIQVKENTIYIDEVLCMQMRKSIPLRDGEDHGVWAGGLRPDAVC

How the values were obtained:
Experiment in all cases: cryo-EM structure; single-particle cryo-EM of the 48-nm repeat of native doublet microtubules from axonemes isolated from human respiratory cilia (ALI cultures); 3.6 Å consensus, 3.1 to 3.5 Å after local refinement
[1] = molecular target: T1, CFAP53 (human (endogenous in respiratory cilia)) (UniProt Q96M91)
T1 sequence: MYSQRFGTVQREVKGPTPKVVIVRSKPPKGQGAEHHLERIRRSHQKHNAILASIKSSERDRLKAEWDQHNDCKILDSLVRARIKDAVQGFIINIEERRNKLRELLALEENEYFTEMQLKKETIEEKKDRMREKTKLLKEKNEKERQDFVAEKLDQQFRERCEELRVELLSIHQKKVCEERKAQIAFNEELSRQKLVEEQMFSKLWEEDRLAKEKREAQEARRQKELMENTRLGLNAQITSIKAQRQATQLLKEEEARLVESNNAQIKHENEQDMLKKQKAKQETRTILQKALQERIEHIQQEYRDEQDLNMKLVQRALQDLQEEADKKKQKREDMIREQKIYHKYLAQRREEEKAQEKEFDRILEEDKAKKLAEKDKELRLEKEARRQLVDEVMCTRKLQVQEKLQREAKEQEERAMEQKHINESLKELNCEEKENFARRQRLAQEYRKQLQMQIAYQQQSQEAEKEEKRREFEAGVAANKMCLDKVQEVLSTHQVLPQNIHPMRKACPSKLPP

[2] = molecular target: NME7 (human (endogenous in respiratory cilia)) (UniProt Q9Y5B8)
[3] = molecular target: β-tubulin (TUBB4B) of the human respiratory DMT (human (endogenous in respiratory cilia)) (UniProt P68371)
[4] = molecular target: T2, CFAP45 (human (endogenous in respiratory cilia)) (UniProt Q9UL16)
T2 sequence: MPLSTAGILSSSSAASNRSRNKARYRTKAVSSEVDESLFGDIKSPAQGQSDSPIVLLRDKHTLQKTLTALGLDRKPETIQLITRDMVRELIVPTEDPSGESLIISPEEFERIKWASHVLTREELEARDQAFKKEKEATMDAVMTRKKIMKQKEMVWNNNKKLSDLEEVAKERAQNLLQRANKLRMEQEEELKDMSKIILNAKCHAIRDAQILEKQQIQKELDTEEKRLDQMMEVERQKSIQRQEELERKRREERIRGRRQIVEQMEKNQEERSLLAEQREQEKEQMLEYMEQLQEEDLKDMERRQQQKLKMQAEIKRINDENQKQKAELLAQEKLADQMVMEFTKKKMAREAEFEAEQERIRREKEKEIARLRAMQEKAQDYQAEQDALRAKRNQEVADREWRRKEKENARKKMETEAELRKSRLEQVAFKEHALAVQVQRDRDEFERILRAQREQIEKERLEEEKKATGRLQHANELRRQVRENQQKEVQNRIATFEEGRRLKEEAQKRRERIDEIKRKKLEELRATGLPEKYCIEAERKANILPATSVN

[5] = molecular target: T3, CFAP210 (human (endogenous in respiratory cilia)) (UniProt Q0VFZ6)
T3 sequence: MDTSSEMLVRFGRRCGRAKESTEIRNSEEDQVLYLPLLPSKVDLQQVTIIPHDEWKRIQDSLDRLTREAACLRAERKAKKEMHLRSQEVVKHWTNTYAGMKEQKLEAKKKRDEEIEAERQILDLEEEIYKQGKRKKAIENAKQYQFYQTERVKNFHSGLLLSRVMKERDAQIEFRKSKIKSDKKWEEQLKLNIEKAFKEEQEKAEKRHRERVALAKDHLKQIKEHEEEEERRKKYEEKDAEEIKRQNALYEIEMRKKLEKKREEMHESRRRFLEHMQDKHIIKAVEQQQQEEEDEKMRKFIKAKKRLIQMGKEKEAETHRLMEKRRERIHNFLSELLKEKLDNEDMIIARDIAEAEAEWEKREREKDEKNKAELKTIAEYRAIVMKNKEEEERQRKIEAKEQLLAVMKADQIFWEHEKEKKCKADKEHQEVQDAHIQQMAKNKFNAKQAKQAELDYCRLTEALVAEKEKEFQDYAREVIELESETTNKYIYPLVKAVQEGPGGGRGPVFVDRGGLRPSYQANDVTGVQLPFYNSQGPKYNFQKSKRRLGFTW

[6] = molecular target: T4, ENKUR (human (endogenous in respiratory cilia)) (UniProt Q8TC29)
T4 sequence: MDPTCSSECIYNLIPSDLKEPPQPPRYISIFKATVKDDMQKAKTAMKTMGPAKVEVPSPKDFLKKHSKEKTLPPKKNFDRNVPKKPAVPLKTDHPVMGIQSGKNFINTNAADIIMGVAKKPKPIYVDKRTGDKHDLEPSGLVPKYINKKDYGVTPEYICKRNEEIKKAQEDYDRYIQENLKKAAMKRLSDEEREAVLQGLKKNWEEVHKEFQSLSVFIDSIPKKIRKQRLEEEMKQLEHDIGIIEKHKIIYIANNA

[7] = molecular target: T5, CFAP52 (human (endogenous in respiratory cilia)) (UniProt Q8N1V2)
T5 sequence: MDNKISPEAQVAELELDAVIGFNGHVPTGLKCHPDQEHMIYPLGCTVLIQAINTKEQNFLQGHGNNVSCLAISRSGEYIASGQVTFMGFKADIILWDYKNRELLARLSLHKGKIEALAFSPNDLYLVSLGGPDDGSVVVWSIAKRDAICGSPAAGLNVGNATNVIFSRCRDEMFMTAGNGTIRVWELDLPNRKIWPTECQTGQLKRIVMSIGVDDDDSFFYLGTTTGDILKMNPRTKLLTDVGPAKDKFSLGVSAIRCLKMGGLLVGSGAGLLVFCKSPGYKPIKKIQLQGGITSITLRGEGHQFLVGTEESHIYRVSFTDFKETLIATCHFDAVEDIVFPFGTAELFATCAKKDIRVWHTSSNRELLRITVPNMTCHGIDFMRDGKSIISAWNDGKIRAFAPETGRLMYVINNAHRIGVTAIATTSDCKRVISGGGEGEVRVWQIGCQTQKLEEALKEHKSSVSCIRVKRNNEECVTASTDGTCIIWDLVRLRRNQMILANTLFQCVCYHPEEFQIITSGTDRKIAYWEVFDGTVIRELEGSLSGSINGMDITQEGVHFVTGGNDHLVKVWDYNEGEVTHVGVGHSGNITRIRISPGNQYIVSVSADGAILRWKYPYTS

[8] = molecular target: tektin 1 (human (endogenous in respiratory cilia)) (UniProt Q969V4)

binding [1]: binds | binding [2]: binds
B1: CFAP68 (protein, UniProt Q9H5F2 1-150)
chain: MAASQCLCCSKFLFQRQNLACFLTNPHCGSLVNADGHGEVWTDWNNMSKFFQYGWRCTTNENTYSNRTLMGNWNQERYDLRNIVQPKPLPSQFGHYFETTYDTSYNNKMPLSTHRFKREPHWFPGHQPELDPPRYKCTEKSTYMNSYSKP

binding [3]: binds
B2: SPACA9 (protein, UniProt Q96E40 1-222)
chain: MNEVKESLRSIEQKYKLFQQQQLTFTAALEHCRENAHDKIRPISSIGQVQSYMEHYCNSSTDRRVLLMFLDICSELNKLCQHFEAVHSGTPVTNNLLEKCKTLVSQSNDLSSLRAKYPHDVVNHLSCDEARNHYGGVVSLIPLILDLMKEWIAHSEKLPRKVLQHVSEPQAHQESTRGAARPAQAIGTQPRATKHKCRQLTKASLKPRGCSKPPWRPPGGKL

binding [4]: binds | binding [5]: binds
B3: FAM183A (protein, UniProt A6NL82 1-134)
chain: MAGHPKEKVIPDEVHQNQILRELYLKELRTQKLYTQYHVNPLRKIHTVTRKPMSWHDNLEEPADARFLNLIHHAAQGPRKKYPETQTENQEVGWDLEPLINPERHDRRLNHFRVCSDITLYKAKTWGLGDDHHK

binding [6]: binds | binding [4]: binds | binding [7]: binds
B4: CFAP90 (protein, UniProt A4QMS7 1-147)
chain: MEDDEEETTASTLRGKPRPPPVSAQSAFSYIPPRRLDPKEHSYYYRPARTGIISLYDCIFKRRLDYDQKLHRDDREHAKSLGLHVNEEEQERPVGVLTSSVYGKRINQPIEPLNRDFGRANHVQADFYRKNDIPSLKEPGFGHIAPS

binding [8]: binds
B5: FAM166C (protein, UniProt A6NJV1 1-201)
chain: MASRSAGTLLTEFNAAYVPPGLMPGYQGHVPTVAFSFGAPYGTTTLKYFQDHRNRAMEKSHTPFSQGGHFPTIFSTNPNLLLMERASTRDRWLHKPSYTRFNLDSHRSTELTNFYQMVQQHRKYYQDKTGTVPRVPYFAMPVREPERYPLPTVLPPLCPKKKWHLLRLAPENLKTYQTFPSGKRVSPQERKKRDCYFEFRA
